Reference: PMC9856044 (Biomolecules, 2023)

Test system: HeLa cells
Experiment: Confocal microscopy co-localization assay in live HeLa cells
Type: cell-based, human
Conditions: 1 μM compound, 60 min

| Compound | Intracellular localization | PCC ± SD (co-localization with MitoTracker Deep Red, corrected by RBNCC) |
| --- | --- | --- |
| C[n+]1c(C=C2Sc3ccccc3N2CCCS(=O)(=O)[O-])[se]c2ccccc21 [Compound 1, 3-(2-((3-methylbenzo[d][1,3]selenazol-3-ium-2-yl)methylene)benzo[d]thiazol-3(2H)-yl)propane-1-sulfonate] | significant co-localization | 0.675 ± 0.0297 |
| C[n+]1c(/C=C2\Sc3ccccc3N2CCS)[se]c2ccccc21 [Compound 6, 2-((3-(2-mercaptoethyl)benzo[d]thiazol-2(3H)-ylidene)methyl)-3-methylbenzo[d][1,3]selenazol-3-ium methosulphate] | significant co-localization | 0.674 ± 0.1092 |
| COc1ccc2c(c1)SC(=Cc1[se]c3ccccc3[n+]1C)N2CCCS(=O)(=O)[O-] [Compound 2, 3-(6-methoxy-2-((3-methylbenzo[d][1,3]selenazol-3-ium-2-yl)methylene)benzo[d]thiazol-3(2H)-yl)propane-1-sulfonate] | significant co-localization | 0.491 ± 0.0212 |

Some compounds share one wording; it may come from a single statement.
